Experimental data: PubChem BioAssay AID248 (DTP/NCI, 2004)
The list shows only some results of the screen, not a fair sample: it gathers tests that were run many times, whatever their T/C, doses with no T/C, and many T/C values between a quarter and a half above the control. Further doses and runs are listed elsewhere. T/C is the treated group as % of the vehicle group. Some doses have a count of surviving animals in place of a T/C: the source holds a T/C of zero for them, seemingly a mark for toxic or unscored doses. Some survivor counts are full or nearly so, which does not show that the dose was tolerated: the source hardly ever lists a survival T/C far under the control, and the zero likely stands for such cases as well. Counts of survivors are from the toxicity check (mostly the fifth day) where no day follows; animals may have died later. Schedules are NCI's codes, read here as Q, the interval in days (D) or hours (H), X, the number of doses. Some schedules carry Z or #; the key to these is not given. Where survival is the endpoint, the PubChem record calls one and a half times the control and up active, and a quarter to a half above the control has no call in these data; cut-offs in other NCI protocols can differ. Some entries were tested several times; their values stand side by side, smallest first.

System: L1210 leukemia ip in BDF1 mice, survival T/C
Assay: NCI In Vivo Anticancer Drug Screen. Data for tumor model L1210 Leukemia (intraperitoneal) in B6D2F1 (BDF1) mice
Details: higher T/C = longer survival

Nc1n[nH]c(N)n1
T/C (T/C endpoint: mean survival time, dose: 1600.0 mg/kg/injection, schedule: Q01DX009 (ip), vehicle: saline, evaluated on day 60): 147, 197, 202 % of control
T/C (T/C endpoint: mean survival time, dose: 1600.0 mg/kg/injection, schedule: Q01DX009 (ip), vehicle: saline, run until all animals had died): 141 % of control
T/C (T/C endpoint: mean survival time, dose: 1600.0 mg/kg/injection, schedule: Q01DX009 (oral), vehicle: water): 140 % of control
T/C (T/C endpoint: mean survival time, dose: 1600.0 mg/kg/injection, schedule: Q01DX009 (sc), vehicle: saline): 136 % of control
T/C (T/C endpoint: mean survival time, dose: 1600.0 mg/kg/injection, schedule: Q01DX017 (ip), vehicle: water): 131 % of control
T/C (T/C endpoint: mean survival time, dose: 1600.0 mg/kg/injection, schedule: Q01DX Z (oral), vehicle: carboxymethylcellulose (CMC)): 145 % of control
T/C (T/C endpoint: mean survival time, dose: 1600.0 mg/kg/injection, schedule: Q02DX005 (ip), vehicle: saline): 132 % of control
T/C (T/C endpoint: mean survival time, dose: 1600.0 mg/kg/injection, schedule: Q12HX018 (ip), vehicle: water): 148 % of control
T/C (T/C endpoint: mean survival time, dose: 1600.0 mg/kg/injection, schedule: Q## X024 (ip), vehicle: saline): 131 % of control
T/C (T/C endpoint: mean survival time, dose: 1800.0 mg/kg/injection, schedule: Q01DX009 (ip), vehicle: water): 134 % of control
T/C (T/C endpoint: mean survival time, dose: 1800.0 mg/kg/injection, schedule: Q## X018 (ip), vehicle: saline): 136 % of control
survivor count (T/C endpoint: mean survival time, dose: 2000.0 mg/kg/injection, schedule: Q01DX Z (ip), vehicle: other): 6 of 6
T/C (T/C endpoint: mean survival time, dose: 2048.0 mg/kg/injection, schedule: Q## X044 (ip), vehicle: other): 125 % of control
T/C (T/C endpoint: mean survival time, dose: 2048.0 mg/kg/injection, schedule: Q#A X012 (ip), vehicle: other): 141 % of control
T/C (T/C endpoint: mean survival time, dose: 3200.0 mg/kg/injection, schedule: Q01DX Z (oral), vehicle: carboxymethylcellulose (CMC)): 125 % of control
survivor count (T/C endpoint: mean survival time, dose: 3200.0 mg/kg/injection, schedule: Q01DX Z (oral), vehicle: saline): 5 of 6
survivor count (T/C endpoint: mean survival time, dose: 4000.0 mg/kg/injection, schedule: Q01DX005 (oral), vehicle: water): 6 of 8
survivor count (T/C endpoint: mean survival time, dose: 4000.0 mg/kg/injection, schedule: Q01DX009 (ip), vehicle: saline): 7 of 10
survivor count (T/C endpoint: mean survival time, dose: 4000.0 mg/kg/injection, schedule: Q01DX009 (oral), vehicle: water): 6 of 8
T/C (T/C endpoint: mean survival time, dose: 4000.0 mg/kg/injection, schedule: Q04DX003 (ip), vehicle: saline): 143 % of control
T/C (T/C endpoint: mean survival time, dose: 4000.0 mg/kg/injection, schedule: Q04DX003 (oral), vehicle: water): 139 % of control
survivor count (T/C endpoint: mean survival time, dose: 4096.0 mg/kg/injection, schedule: Q## X024 (ip), vehicle: other): 5 of 10
survivor count (T/C endpoint: mean survival time, dose: 4096.0 mg/kg/injection, schedule: Q## X044 (ip), vehicle: other): 0 of 10
survivor count (T/C endpoint: mean survival time, dose: 4096.0 mg/kg/injection, schedule: Q## X088 (ip), vehicle: other): 9 of 10
survivor count (T/C endpoint: mean survival time, dose: 7200.0 mg/kg/injection, schedule: Q## X024 (ip), vehicle: saline): 2 of 6
survivor count (T/C endpoint: mean survival time, dose: 8192.0 mg/kg/injection, schedule: Q## X024 (ip), vehicle: other): 0 of 10
survivor count (T/C endpoint: mean survival time, dose: 8192.0 mg/kg/injection, schedule: Q## X048 (ip), vehicle: other): 0 of 10
T/C (T/C endpoint: median survival time, dose: 400.0 mg/kg/injection, schedule: Q## X004 (ip), vehicle: water): 127 % of control
T/C (T/C endpoint: median survival time, dose: 800.0 mg/kg/injection, schedule: Q## X004 (ip), vehicle: water): 144 % of control
T/C (T/C endpoint: median survival time, dose: 1600.0 mg/kg/injection, schedule: Q## X004 (ip), vehicle: water): 133 % of control
survivor count (T/C endpoint: median survival time, dose: 3200.0 mg/kg/injection, schedule: Q## X004 (ip), vehicle: water): 4 of 8
